The list does not hold the whole screen: it is rich in T/C values a quarter to a half above the control, in often repeated tests (any T/C) and in doses without a T/C. Other doses and runs of a compound stand elsewhere. T/C is the treated group as % of the vehicle group. Some doses have a count of surviving animals in place of a T/C: the source files T/C as zero there, which appears to mark a toxic dose or a test without result, not a measured value. Some doses without a T/C left all or most animals alive at the check, yet need not have been tolerated: the source hardly ever lists a survival T/C far under the control, and the zero likely stands for such cases as well. Survivors were counted at the toxicity check, usually on the fifth day, unless a day is given; later deaths do not show. Schedules are NCI's codes, read here as Q, the interval in days (D) or hours (H), X, the number of doses. Some molecules as drawn cover several salts, stereoisomers or complexes of the source; a dose is that of the sample tested. Some doses were run more than once; the results are listed from low to high. Where survival is the endpoint, this PubChem deposit counts one and a half times the control or more as active, and values a quarter to a half above the control carry no call in these data; other NCI protocols may use other cut-offs.
Tested on: L1210 leukemia ip in BDF1 mice, survival T/C
Assay: NCI In Vivo Anticancer Drug Screen. Data for tumor model L1210 Leukemia (intraperitoneal) in B6D2F1 (BDF1) mice
Conditions: T/C endpoint: mean survival time, higher T/C = longer survival
[1] = dose: 100.0 mg/kg/injection, schedule: Q01DX001 (ip), vehicle: saline
[2] = dose: 200.0 mg/kg/injection, schedule: Q01DX001 (ip), vehicle: saline
[3] = dose: 400.0 mg/kg/injection, schedule: Q01DX001 (ip), vehicle: saline
[4] = dose: 400.0 mg/kg/injection, schedule: Q04DX003 (ip), vehicle: Klucel (hydroxypropylcellulose) (HPC)
[5] = dose: 300.0 mg/kg/injection, schedule: Q01DX001 (ip), vehicle: saline
[6] = dose: 400.0 mg/kg/injection, schedule: Q04DX003 (ip), vehicle: saline with Tween-80

Structure (SMILES): Cc1cccc[c]1[Sb](=[O])([OH])[OH]
- survivor count [1]: 1 of 4
- survivor count [2]: 1 of 4
- survivor count [3]: 1 of 4

Structure (SMILES): COc1cc([N+](=O)[O-])c(C(=O)O)c(C(=O)O)c1OC
- survivor count (dose: 100.0 mg/kg/injection, schedule: Q04DX003 (ip), vehicle: Klucel (hydroxypropylcellulose) (HPC)): 6 of 6
- survivor count (dose: 200.0 mg/kg/injection, schedule: Q04DX003 (ip), vehicle: Klucel (hydroxypropylcellulose) (HPC)): 0 of 6
- survivor count [4]: 0 of 6

Structure (SMILES): CCCCC1C(=O)N=C2C=CC=CN2C1=O (stereo not drawn)
- survivor count (dose: 400.0 mg/kg/injection, schedule: Q04DX003 (ip), vehicle: other): 0 of 6

Structure (SMILES): CNC(=O)Oc1ccccc1C(C)C
- survivor count (dose: 100.0 mg/kg/injection, schedule: Q04DX002 (ip), vehicle: Klucel (hydroxypropylcellulose) (HPC)): 0 of 3
- survivor count (dose: 200.0 mg/kg/injection, schedule: Q04DX002 (ip), vehicle: Klucel (hydroxypropylcellulose) (HPC)): 0 of 3

Structure (SMILES): COC(=O)c1ccc(=O)oc1
- survivor count (dose: 400.0 mg/kg/injection, schedule: Q04DX003 (ip), vehicle: gum acacia): 0 of 6

Structure (SMILES): O=[N+]([O-])C(=C\c1ccccc1)/C(=C(/Br)[N+](=O)[O-])c1ccccc1
- survivor count [5]: 1 of 6

Structure (SMILES): Cc1ccc(C(C#N)c2ccc(N)cc2)cc1 (stereo not drawn)
- survivor count [3]: 2 of 4

Structure (SMILES): CC(C)NC(=O)c1ccc(/C=N/N(C)C)cc1
- survivor count [4]: 3 of 6

Structure (SMILES): CCCC(CCC)=NCCN=C(CCC)CCC
- survivor count (dose: 400.0 mg/kg/injection, schedule: Q01DX009 (ip), vehicle: saline): 3 of 6

Structure (SMILES): CC(=O)Nc1ccc(N2CCN=N2)cc1
- survivor count (dose: 100.0 mg/kg/injection, schedule: Q01DX009 (ip), vehicle: saline with Tween-80): 3 of 6
- survivor count (dose: 200.0 mg/kg/injection, schedule: Q04DX003 (ip), vehicle: saline with Tween-80): 4 of 6
- survivor count [6]: 2 of 6

Structure (SMILES): CCC1=C(CC2NCCc3cc(OC)c(OC)cc32)CC2c3ccccc3CCN2C1 (stereo not drawn)
- survivor count [5]: 0 of 6 and 2 of 6

Structure (SMILES): CC(C)N=Cc1ccccc1O.CC(C)N=Cc1ccccc1O.[Co]
- survivor count (dose: 400.0 mg/kg/injection, schedule: Q01DX009 (ip), vehicle: saline sonified): 2 of 6

Structure (SMILES): CCOc1ccc2nc(N)sc2c1
- survivor count (dose: 400.0 mg/kg/injection, schedule: Q04DX003 (ip), vehicle: saline): 0 of 6

Structure (SMILES): CC(C)=NNCCO
- survivor count [1]: 1 of 6

Structure (SMILES): CCCCCCCCCCCCCCCCOS(=O)(=O)O
- survivor count [5]: 2 of 6

Structure (SMILES): C=CCCCCCCCCC(=O)NC(C)C(C)(C)C (stereo not drawn)
- survivor count [6]: 6 of 6

Structure (SMILES): Cc1ccc(C(=O)c2ccccc2)c(C)c1
- survivor count (dose: 200.0 mg/kg/injection, schedule: Q01DX001 (ip), vehicle: carboxymethylcellulose (CMC)): 4 of 4

Structure (SMILES): NC1CC(C(=O)O)CCC1S (stereo not drawn)
- survivor count (dose: 25.0 mg/kg/injection, schedule: Q04DX002 (ip), vehicle: saline): 3 of 3
- survivor count (dose: 200.0 mg/kg/injection, schedule: Q04DX002 (ip), vehicle: other): 0 of 3

Structure (SMILES): CC(=O)OCC(NC(=O)N(CCCl)N=O)C(OC(C)=O)C(OC(C)=O)C(COC(C)=O)OC(C)=O (stereo not drawn)
- T/C (dose: 6.0 mg/kg/injection, schedule: Q01DX001 (ip), vehicle: saline + alcohol): 138 % of control
- survivor count (dose: 30.0 mg/kg/injection, schedule: Q01DX001 (ip), vehicle: saline + alcohol): 10 of 10
- survivor count (dose: 45.0 mg/kg/injection, schedule: Q01DX001 (ip), vehicle: saline + alcohol): 10 of 10
- survivor count (dose: 67.0 mg/kg/injection, schedule: Q01DX001 (ip), vehicle: saline + alcohol): 10 of 10

Structure (SMILES): C=CCC1(/C(C)=C/C)C(=O)NC(=O)NC1=O
- survivor count [5]: 0 of 6

Structure (SMILES): CCOc1ccc(C(=O)C(C)CN2CCN(C)CC2)cc1 (stereo not drawn)
- survivor count [2]: 0 of 4
- survivor count [3]: 0 of 4

Source: PubChem BioAssay AID248 (DTP/NCI, 2004)
